Data on 2 compounds can be found in US20260263391A1, “COMPOUND AND USE THEREOF” (BENETHERA (SHAOXING) BIOTECHNOLOGY CO., LTD., priority 2023, published 2026).

For assay [1], the system named is Psoriasis mouse model. The settings on record: 0.025% ointment, 200 mg applied on the back for 6 consecutive days.
The subject of assay [2] is Psoriasis mouse model. The settings on record: more detailed dose exploration, 0.02% to 0.1% still effective. The method, then:
Psoriasis mouse model was established by intradermal injection of recombinant […] (1 ng/20 μL PBS, per mouse per day for 4 consecutive days) into depilated mice on the back.
The calculation rule for the number of days was: the number of days will be calculated from the end of modeling, which will be recorded as Day 0, followed by Day 1, Day 2, etc.
Scoring criteria: 0 points, no symptom; 1 point, skin erythema; 2 points, scattered scurf, 3 points, diffuse dandruff, 4 points, skin sclerosis; 5 points, erythroderma or death.

In the case of `CCCNC[C@@H](O)COc1ccccc1C(=O)CCc1ccccc1` [Compound 3, R-propafenone], the “skin score at the end of the experiment compared with the ointment group” value in assay [1] is “significantly decreased”.

With `CCCNCC(O)COc1ccccc1C(=O)CCc1ccccc1` (stereo not drawn) [Compound 1, propafenone], the “skin score at the end of the experiment compared with the ointment group” value in assay [1] is “significantly decreased”. Besides, the “mass concentration in the ointment with significant therapeutic effect” value in assay [2] is recorded as 0.02%-0.5%.
